Experimental data: article PMC8150921
Results are given in words; binding and its absence hold for the method and conditions named. In cells and extracts the contact can be indirect. A result given as binding can be weak or reduced; the word gives no strength.

By UniProt entry, the sequences of proteins in these tests, tags left out.
UniProt P40763: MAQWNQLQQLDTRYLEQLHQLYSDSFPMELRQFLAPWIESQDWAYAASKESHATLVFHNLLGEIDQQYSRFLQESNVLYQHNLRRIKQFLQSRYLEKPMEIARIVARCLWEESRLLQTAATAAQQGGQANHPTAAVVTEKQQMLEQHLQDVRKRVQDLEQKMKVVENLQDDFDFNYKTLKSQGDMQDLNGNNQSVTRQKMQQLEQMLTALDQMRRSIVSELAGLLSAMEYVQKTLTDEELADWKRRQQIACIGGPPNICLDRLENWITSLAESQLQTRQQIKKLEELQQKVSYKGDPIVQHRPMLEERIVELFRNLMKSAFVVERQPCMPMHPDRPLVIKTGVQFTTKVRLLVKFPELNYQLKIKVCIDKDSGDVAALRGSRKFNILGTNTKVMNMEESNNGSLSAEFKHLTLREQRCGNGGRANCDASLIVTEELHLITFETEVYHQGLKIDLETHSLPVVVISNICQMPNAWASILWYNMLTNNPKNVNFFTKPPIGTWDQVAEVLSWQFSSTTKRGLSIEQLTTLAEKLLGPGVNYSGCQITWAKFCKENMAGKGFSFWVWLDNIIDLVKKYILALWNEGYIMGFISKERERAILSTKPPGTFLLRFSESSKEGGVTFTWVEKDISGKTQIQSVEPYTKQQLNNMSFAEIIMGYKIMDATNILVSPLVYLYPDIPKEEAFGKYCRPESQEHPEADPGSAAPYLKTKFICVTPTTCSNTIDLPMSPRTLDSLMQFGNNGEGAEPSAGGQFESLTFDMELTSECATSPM

Target: flag-tagged STAT3 (STAT3-WT-Flag) (UniProt P40763)
Assay: co-IP; Flag antibody IP from lysates of transfected HEK293 cells, Western blot for p-TrkA and total TrkA

- binding: binds
Substance: TrkA-K538N (kinase-dead) (from UniProt P04629-2) (receptor)
